According to patent US20160186156A1:
Results are given in words; binding and its absence hold for the method and conditions named. Some results given as binding are weak or reduced against the parent protein; the word gives no strength. Where a sequence is shown, tags or fusion partners need not be part of it.

By UniProt entry, the sequences of proteins in these tests, tags left out. Where a name states a change or a piece, a line headed by the entry shows the natural chain unless it says otherwise.
UniProt Q06851: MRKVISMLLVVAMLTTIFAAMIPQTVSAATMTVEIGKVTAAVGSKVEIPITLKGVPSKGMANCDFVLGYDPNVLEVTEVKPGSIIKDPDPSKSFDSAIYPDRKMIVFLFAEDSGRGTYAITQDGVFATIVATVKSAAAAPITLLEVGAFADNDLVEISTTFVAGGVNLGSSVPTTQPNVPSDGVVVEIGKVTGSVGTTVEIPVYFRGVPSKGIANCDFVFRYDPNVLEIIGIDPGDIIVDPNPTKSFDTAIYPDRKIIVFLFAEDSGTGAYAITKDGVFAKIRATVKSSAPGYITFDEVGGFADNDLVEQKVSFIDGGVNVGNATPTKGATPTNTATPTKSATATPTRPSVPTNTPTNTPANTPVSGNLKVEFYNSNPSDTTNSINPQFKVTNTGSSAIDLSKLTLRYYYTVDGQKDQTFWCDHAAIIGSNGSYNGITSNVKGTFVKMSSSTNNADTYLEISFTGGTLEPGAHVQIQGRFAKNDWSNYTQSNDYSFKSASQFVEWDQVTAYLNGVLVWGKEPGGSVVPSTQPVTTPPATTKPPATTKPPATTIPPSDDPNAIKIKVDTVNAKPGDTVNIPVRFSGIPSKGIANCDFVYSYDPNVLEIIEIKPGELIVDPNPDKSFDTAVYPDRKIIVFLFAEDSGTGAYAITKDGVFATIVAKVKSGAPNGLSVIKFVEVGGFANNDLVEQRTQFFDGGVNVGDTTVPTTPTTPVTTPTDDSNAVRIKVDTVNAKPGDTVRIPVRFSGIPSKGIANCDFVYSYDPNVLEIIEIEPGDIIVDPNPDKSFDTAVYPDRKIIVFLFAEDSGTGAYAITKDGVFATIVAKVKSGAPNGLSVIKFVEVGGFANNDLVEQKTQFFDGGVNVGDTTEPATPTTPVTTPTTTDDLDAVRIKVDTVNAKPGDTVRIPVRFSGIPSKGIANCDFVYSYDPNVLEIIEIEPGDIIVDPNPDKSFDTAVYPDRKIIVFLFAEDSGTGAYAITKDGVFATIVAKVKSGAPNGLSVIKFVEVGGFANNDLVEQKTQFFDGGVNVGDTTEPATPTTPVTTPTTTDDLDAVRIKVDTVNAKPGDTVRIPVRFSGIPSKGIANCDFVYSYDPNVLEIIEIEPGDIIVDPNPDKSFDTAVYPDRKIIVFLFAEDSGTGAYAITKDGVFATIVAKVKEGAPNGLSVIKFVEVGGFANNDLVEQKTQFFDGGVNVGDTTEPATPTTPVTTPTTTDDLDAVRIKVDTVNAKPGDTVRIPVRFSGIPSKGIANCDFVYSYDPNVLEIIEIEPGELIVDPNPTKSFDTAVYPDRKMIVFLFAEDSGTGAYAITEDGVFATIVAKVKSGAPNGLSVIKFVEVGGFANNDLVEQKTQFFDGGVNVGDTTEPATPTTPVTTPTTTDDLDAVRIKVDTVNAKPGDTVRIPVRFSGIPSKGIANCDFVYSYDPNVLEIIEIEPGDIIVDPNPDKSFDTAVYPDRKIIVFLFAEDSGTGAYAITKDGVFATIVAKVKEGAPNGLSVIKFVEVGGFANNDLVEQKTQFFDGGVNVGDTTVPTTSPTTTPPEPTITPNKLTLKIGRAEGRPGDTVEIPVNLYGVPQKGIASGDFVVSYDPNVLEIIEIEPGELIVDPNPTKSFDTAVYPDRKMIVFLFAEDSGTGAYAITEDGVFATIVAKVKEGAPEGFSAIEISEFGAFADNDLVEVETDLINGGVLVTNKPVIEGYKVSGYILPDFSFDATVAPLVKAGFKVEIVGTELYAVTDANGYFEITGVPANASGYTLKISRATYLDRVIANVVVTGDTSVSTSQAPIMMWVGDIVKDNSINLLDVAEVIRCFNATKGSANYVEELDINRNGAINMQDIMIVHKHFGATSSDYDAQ

Molecular target: T1, exoglucanase Cel48S from C. thermocellum together with its native dockerin
T1 sequence: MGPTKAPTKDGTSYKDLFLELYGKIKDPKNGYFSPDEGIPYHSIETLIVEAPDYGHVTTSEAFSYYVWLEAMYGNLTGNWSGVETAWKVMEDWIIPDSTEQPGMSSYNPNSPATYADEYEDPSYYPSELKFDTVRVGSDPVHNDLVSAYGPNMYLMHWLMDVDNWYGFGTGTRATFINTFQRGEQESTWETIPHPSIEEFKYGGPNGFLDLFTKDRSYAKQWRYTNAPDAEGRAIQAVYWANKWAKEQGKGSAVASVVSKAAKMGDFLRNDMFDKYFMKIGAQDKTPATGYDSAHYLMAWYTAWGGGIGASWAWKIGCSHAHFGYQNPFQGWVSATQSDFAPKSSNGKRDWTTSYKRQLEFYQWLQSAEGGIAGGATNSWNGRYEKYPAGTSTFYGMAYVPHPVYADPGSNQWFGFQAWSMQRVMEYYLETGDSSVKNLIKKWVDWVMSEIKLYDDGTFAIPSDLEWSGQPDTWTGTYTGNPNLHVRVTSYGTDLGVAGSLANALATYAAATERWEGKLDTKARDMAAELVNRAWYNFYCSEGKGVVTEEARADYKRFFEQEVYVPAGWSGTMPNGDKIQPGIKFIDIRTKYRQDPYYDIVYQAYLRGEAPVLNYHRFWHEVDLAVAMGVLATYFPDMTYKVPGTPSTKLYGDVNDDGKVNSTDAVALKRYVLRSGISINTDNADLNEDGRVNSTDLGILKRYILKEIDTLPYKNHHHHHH
Experiment: affinity-based ELISA; enzyme coated on the plate, CBM-cohesin at 0.1-1000 ng/ul, detected with anti-CBM antibody

binding: binds
Substance: CBM-CohCt A2 (from UniProt Q06851 361-1677)
